# Assay results as given in patent US8796456B2, “Naphthalene diimide compounds” (University College London, priority 2007, dated 2014).
# Test system: MCF7 cells
# Assay: Cell uptake and localisation by fluorescent confocal microscopy
# Conditions: 0.5 μM, 30 min exposure
structure (smiles),measurement,value
CN(C)CCCNc1cc2c3c(c(NCCCN(C)C)cc4c3c1C(=O)N(CCCN(C)C)C4=O)C(=O)N(CCCN(C)C)C2=O [Compound 12],localisation within MCF7 cells (confocal microscopy),localise exclusively in the nucleus; also recorded: localisation in the nucleolus

# Entries after “also recorded” stand apart in the source; their conditions may differ.
